Reference: the supplement of paper PMC5949888
± gives the standard deviation of the averaged measurements. Most values lie at the floor of the assay. Slopes are relative: functional sequences can read slightly below zero.

tested on: Saccharomyces cerevisiae PS128 hsf1 delta, HSF1(1-493) fusion; test: growth estimate (transactivation domain function in HSF1 fusion, heat-shock survival) (a.u. (slope of normalised read count over time)); higher = stronger growth at 37°C, i.e. more transactivation activity; conditions: library: random library

Row | Substance | growth estimate
1 | LCRSGIYGSRLCTSLSSQMP | < -0.25
2 | EWVHVCIAL | < -0.25
3 | GGRAGQGTGNAGGSAHCCAA | < -0.25
4 | QSLLEQIEVFDWRSRCIASG | < -0.25
5 | PPGPACVISIDCGVSHFRQQ | < -0.25
6 | DKGTVLSRVNGSLTDYNKTV | < -0.25
7 | HLMSSEFVKLEMMFCAERVE | < -0.25
8 | QKPAYSPQNMASFADRVGVG | < -0.25
9 | LCALRSLIHTLTRSNRAMPE | < -0.25
10 | LIGLSVNAHCLVQGVETAIR | < -0.25
11 | SLQREDLLQPWGVSIWIPGR | < -0.25
12 | VPCCG | < -0.25
13 | NVSAYQKTSISAAPGWLAPR | < -0.25
14 | VVAATIGHTAYS | < -0.25
15 | VASNTEHPRLGPGRNIRHLG | < -0.25
16 | LTLSTLVSREANAEDRAYAG | -0.226
17 | LKTLLQEGVATMCKSILAPG | < -0.25
18 | NVKLVKRSPMQRARIEPSRF | < -0.25
19 | WRR | -0.246
20 | FSYYIYERGQGCHLSLFDSV | < -0.25
21 | HVEAHRGIPVPPDRYTGIHS | < -0.25
22 | SCRGSV | < -0.25
23 | GVLKDFRVVGSPNGSINGYS | < -0.25

Pulled one by one from above (4):
Row | Substance | growth estimate
22 | SCRGSV | < -0.25
6 | DKGTVLSRVNGSLTDYNKTV | < -0.25
17 | LKTLLQEGVATMCKSILAPG | < -0.25
20 | FSYYIYERGQGCHLSLFDSV | < -0.25

Later entries.

Row | Substance | growth estimate
24 | QMLRLGGGVRLKILRFSQ | < -0.25
25 | CDGTAA | -0.243
26 | PDGSRRHACSPPQSCSYRPL | < -0.25
27 | VQGARLPVPLKLYSSVAEPL | < -0.25
28 | RLVSAAPKPAESQVTHVSSH | < -0.25
29 | VAGVFGSSA | < -0.25
30 | ESPV | < -0.25
31 | DFDG | < -0.25
32 | SNPFPATHWYRPLIF | < -0.25
33 | IRRTRVPSVTPTGVHRTWPR | < -0.25
34 | CCAAAPVRDVPHIHLVGPEG | < -0.25
35 | QGESHDA | < -0.25
36 | GTGRKLSDISPILTPRWGPV | < -0.25
37 | RCLEKS | < -0.25
38 | LCQSYRWVANYRRICLWGGL | < -0.25
39 | SIRTFLFCTDGRRGGCDQAT | < -0.25
40 | FSSTVAGR | < -0.25
41 | GIRPGVTNPPPAPQEVHYHA | < -0.25
42 | CTTS | < -0.25
43 | AHRLAFGVHDGGPVECALEV | < -0.25
44 | VNLHASSMRA | < -0.25
45 | NYTLKL | < -0.25
46 | TGAALVRGATSNYI | < -0.25

At a glance, some entries already given.
Row | Substance | growth estimate
14 | VVAATIGHTAYS | < -0.25
15 | VASNTEHPRLGPGRNIRHLG | < -0.25
16 | LTLSTLVSREANAEDRAYAG | -0.226
17 | LKTLLQEGVATMCKSILAPG | < -0.25
18 | NVKLVKRSPMQRARIEPSRF | < -0.25

Next results.

Row | Substance | growth estimate
47 | IGVVISLIHKHAYGGSQPDV | < -0.25
48 | DMCEEATLLGRG | < -0.25
49 | VLGQIVECCG | < -0.25
50 | LKSRKTTLLGRTVKESRVTP | < -0.25
51 | DLSTRRVGSALSHGVMPKQP | < -0.25
52 | PKVAAKGLIATCDMEG | < -0.25
53 | GLRYTSGRPISPPHHLPQGG | < -0.25
54 | FHPICAAAVRTR | < -0.25
55 | WPANRRTLRHLPVRGRLGQH | < -0.25
56 | PSSIRDPDSGWLHPLTGKPS | < -0.25
57 | VSYRP | -0.145
58 | LIFSRANVCAWPRFSYASRS | < -0.25
59 | GFDSELSQAVRARYPMTPPT | < -0.25
60 | RVATRLVRPDHTF | < -0.25
61 | QVFP | < -0.25
62 | LTFQSSWDTPLARDADPRQS | < -0.25
63 | SPVQPDALSSVSKQWYEPAC | < -0.25
64 | ARLSIGGKNPRRMPRQAPTR | -0.245
65 | TTTPSLGYRPARTIQRPREH | < -0.25
66 | ARVRRGLGWGGALGSVIRGR | < -0.25
67 | DVWLAERPVARRHRGTEPGL | < -0.25
68 | TISGNTVRCKAVTIDKSILC | < -0.25
69 | GSCISVAQRYGRRSGLTRST | < -0.25

Row | Substance | growth estimate
70 | VYDIEP | < -0.25
71 | FQSYALSC | < -0.25
72 | AHVGRS | < -0.25
73 | PFRTRERIPKAGPCRFQMAV | < -0.25
74 | LALDTRCASALWHGRL | < -0.25
75 | ACRRMEKDRGGRR | < -0.25
76 | YTSESHPTFVGDRKSERRPR | < -0.25
77 | VVRITGVIIIDAPGGKTSAA | < -0.25
78 | EKSRVL | < -0.25
79 | RDLFDVWVYRAVDQGLGPLL | < -0.25
80 | GLYSFDCWRRHAQTPSSCSR | < -0.25
81 | ECGLVASPERVLAGCSNHV | < -0.25
82 | AQEAQFFA | < -0.25
83 | VIPGRMCPAYQLSKDLTTIS | < -0.25
84 | SNLSRIAEEKEYFNGPHRAL | < -0.25
85 | GTGHYIAMGGGQNPDGRVRR | < -0.25
86 | DLALRGGGP | < -0.25
87 | KTASRGASLSCHDHFSSVAV | < -0.25
88 | FEPSHVCSLNTFKDVTGHWI | < -0.25
89 | DKGHRKRNGAEQMPNYDHR | < -0.25
90 | RSRFSFQRKVLCCAVLNVEP | < -0.25
91 | MPLEPASAGGMFESVGAVFD | < -0.25
92 | SSRTQ | < -0.25

Row | Substance | growth estimate
93 | LLFQWFLTASRERVAAHFCA | < -0.25
94 | PSS | < -0.25
95 | TWSR | < -0.25
96 | LGRHFLQVPHVPAVPAPSST | < -0.25
97 | SSILCFDDACVRPLVAS | < -0.25
98 | LSG | < -0.25
99 | RPRVTRRNCPVSLSAHTTGV | < -0.25
100 | TVM | < -0.25
101 | SLPVTTKEVRTYYPTVTKGG | < -0.25
102 | RIFN | -0.228
103 | IDLYICVEGRQGEGS | < -0.25
104 | SGCIRSPVRKHRCAGSPSSV | < -0.25
105 | VVGLVDGVGLEMIYTVSVTK | < -0.25
106 | HCTVKVANYTWVVYLQRLSA | < -0.25
107 | PRIRGQG | < -0.25
108 | TGHLRHLPNSHG | < -0.25
109 | RPTHEQMRRGALGVVFAYTS | -0.245
110 | IKTALRPRSVTD | < -0.25
111 | LHDEGDWAGSAQPGLLEVAC | -0.245
112 | ELVTTSNVMRFQTVRRIGLS | < -0.25
113 | SVTPVRRFEWLQCDLKLGPS | < -0.25
114 | QGSMLDIAAR | < -0.25
115 | GSD | -0.235 ± 0.026

Row | Substance | growth estimate
116 | AGSI | < -0.25
117 | ESLSVN | < -0.25
118 | IPPVLP | < -0.25
119 | LIVASNEP | < -0.25
120 | HDQHVYRVFLHSGTLYGLSR | < -0.25
121 | DKRLRIRECETLRGFSNEFP | < -0.25
122 | TNPGV | < -0.25
123 | QTGDTLSGNCRRPFAAFHKA | < -0.25
124 | LQTALIL | < -0.25
125 | KHLSSNPGKD | < -0.25
126 | RYW | < -0.25
127 | FKCACMIEVAADMGKAFVPP | < -0.25
128 | IMYCSQVSGRPYNL | < -0.25
129 | LQGEVL | < -0.25
130 | LQRRFVWFDPGRPGEGICVC | < -0.25
131 | VDVKDGYDILVPSCTLGFVC | < -0.25
132 | GVCKRCEGAAGVHSCLYHRS | -0.243
133 | AGYPHLL | < -0.25
134 | GIRLCYAERGKDLVPSKFR | < -0.25
135 | KLTSYTDTSSIDPPGTWRKY | < -0.25
136 | LVERDRTLGVER | < -0.25
137 | RCRRRSSLLFRRYLIFIVFP | < -0.25
138 | LALGKLAWLSIGIRGSGSGR | < -0.25

Row | Substance | growth estimate
139 | KCCVSHTT | < -0.25
140 | EPF | < -0.253
141 | NLRVKA | < -0.25
142 | GLVRGSRGRVIVKTFEETGS | < -0.25
143 | RTMKGSSGFRAERDWPHRRR | < -0.25
144 | AKPGAQALLWQLAKPISD | < -0.25
145 | VPV | < -0.25
146 | FDCILRYSRYKDPQSTWGPA | < -0.25
147 | PRKRTGKPSMTR | < -0.25
148 | RFT | < -0.25
149 | PTATRGNAGTNEG | < -0.25
150 | SSSSGPGNS | < -0.25
151 | YDSTSVSPTLSDCYAVDLSD | < -0.25
152 | GSTTDNTRRGCILLGWGDGV | < -0.25
153 | TASVGASWSLRDRTWGTNEL | < -0.25
154 | GMLELQKPLHITSVRLKVH | < -0.25
155 | GIHKEGQVYCGGRDRRLVVS | < -0.25
156 | VVRRMAQIGVI | < -0.25
157 | AEEASA | < -0.25
